{"sequences": {"note": "Sequences of proteins named here, by UniProt entry; tags and fusion partners are left off.", "UniProt P43220, whole entry, looked up": "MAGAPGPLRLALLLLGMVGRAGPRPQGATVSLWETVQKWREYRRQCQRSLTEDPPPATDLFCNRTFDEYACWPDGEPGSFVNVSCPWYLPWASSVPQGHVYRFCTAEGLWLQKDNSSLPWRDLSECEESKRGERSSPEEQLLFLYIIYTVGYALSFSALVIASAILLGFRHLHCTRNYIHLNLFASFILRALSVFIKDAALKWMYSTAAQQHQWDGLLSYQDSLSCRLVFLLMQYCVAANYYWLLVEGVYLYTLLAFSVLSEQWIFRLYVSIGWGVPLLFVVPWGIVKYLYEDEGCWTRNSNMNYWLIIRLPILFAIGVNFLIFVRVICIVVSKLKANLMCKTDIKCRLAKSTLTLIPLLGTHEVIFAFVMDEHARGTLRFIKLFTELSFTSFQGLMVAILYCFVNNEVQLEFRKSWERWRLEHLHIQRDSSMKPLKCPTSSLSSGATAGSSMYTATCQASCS"}, "source": "PubChem BioAssay AID624417", "about": "(National Center for Advancing Translational Sciences (NCATS), 2012)", "note": "Most of the hits are listed elsewhere, so they are rarer here than in the full data. Results filed as inconclusive are left out. The source made the active and inactive calls. The call rests on the fitted dose curve; in most records, active means well fitted inhibition curve with a large enough effect; inconclusive means small, poorly fitted or top-dose-only effect; inactive means no such curve, though single readings can be large or run the other way. On the % scale 0 is the no-effect control and ±100 the full control effect."}
{"biological_target": "Glucagon-like peptide 1 receptor (Homo sapiens) (UniProt P43220)", "assay": "qHTS of GLP-1 Receptor Inverse Agonists (Inhibition Mode); further: nearly all actives have a fitted effect of over 55% in size", "conditions": "HEK293 GLP-1R CRE-luciferase, luminescence, 24 h, GLP-1R form is constitutively active; at 38.3 µM (top of the series)", "source_text": "The overall goal of this project was to develop a novel assay for discovering small molecule ligands for class B1 G protein-coupled receptors (GPCRs). Very few agonists (or inverse agonists in inhibition mode) with generally weak activity for this entire group of physiologically important receptors are known to date. To establish proof-of-principle that this critical bottleneck can be overcome with a suitable screening approach, our studies focused on the class B1 receptor for glucagon-like peptide-1 (GLP-1R), a potential therapeutic target for diabetes and neurodegenerative disease. The assay was developed using a cell-based functional readout. Toward this goal, stably transfected HEK293 cell clones were established that co-express (i) a cAMP-responsive luciferase reporter gene, and (ii) constitutively active GLP-1R that upon ligand interaction inhibit (inverse agonists) the luciferase activity. […]\nSix ul of cell suspension (200 cells/uL in DMEM + 10% Nu serum + 1% pen-strep) is dispensed in a white solid 1536-well plate. […] A luminescence read is obtained on the PerkinElmer Viewlux after 12 min incubation at room temperature."}
{"smiles": "O=c1ccc2ccc(OCc3ccccc3)cc2o1", "activity change, negative = inhibition": "inactive: 27.6%"}
{"smiles": "O=C1CC(c2ccccc2)Oc2cc(O)ccc21", "note": "(configuration not stated)", "activity change, negative = inhibition": "inactive: 43%"}
